In paper PMC7018736:
These are yes or no findings as the source states them, for the method shown. Binding seen in cells or lysates may run through a third protein. Some entries that bind do so weakly or less than the wild type.

Amino acid sequences for entries named in this document (tags omitted).
UniProt P35579: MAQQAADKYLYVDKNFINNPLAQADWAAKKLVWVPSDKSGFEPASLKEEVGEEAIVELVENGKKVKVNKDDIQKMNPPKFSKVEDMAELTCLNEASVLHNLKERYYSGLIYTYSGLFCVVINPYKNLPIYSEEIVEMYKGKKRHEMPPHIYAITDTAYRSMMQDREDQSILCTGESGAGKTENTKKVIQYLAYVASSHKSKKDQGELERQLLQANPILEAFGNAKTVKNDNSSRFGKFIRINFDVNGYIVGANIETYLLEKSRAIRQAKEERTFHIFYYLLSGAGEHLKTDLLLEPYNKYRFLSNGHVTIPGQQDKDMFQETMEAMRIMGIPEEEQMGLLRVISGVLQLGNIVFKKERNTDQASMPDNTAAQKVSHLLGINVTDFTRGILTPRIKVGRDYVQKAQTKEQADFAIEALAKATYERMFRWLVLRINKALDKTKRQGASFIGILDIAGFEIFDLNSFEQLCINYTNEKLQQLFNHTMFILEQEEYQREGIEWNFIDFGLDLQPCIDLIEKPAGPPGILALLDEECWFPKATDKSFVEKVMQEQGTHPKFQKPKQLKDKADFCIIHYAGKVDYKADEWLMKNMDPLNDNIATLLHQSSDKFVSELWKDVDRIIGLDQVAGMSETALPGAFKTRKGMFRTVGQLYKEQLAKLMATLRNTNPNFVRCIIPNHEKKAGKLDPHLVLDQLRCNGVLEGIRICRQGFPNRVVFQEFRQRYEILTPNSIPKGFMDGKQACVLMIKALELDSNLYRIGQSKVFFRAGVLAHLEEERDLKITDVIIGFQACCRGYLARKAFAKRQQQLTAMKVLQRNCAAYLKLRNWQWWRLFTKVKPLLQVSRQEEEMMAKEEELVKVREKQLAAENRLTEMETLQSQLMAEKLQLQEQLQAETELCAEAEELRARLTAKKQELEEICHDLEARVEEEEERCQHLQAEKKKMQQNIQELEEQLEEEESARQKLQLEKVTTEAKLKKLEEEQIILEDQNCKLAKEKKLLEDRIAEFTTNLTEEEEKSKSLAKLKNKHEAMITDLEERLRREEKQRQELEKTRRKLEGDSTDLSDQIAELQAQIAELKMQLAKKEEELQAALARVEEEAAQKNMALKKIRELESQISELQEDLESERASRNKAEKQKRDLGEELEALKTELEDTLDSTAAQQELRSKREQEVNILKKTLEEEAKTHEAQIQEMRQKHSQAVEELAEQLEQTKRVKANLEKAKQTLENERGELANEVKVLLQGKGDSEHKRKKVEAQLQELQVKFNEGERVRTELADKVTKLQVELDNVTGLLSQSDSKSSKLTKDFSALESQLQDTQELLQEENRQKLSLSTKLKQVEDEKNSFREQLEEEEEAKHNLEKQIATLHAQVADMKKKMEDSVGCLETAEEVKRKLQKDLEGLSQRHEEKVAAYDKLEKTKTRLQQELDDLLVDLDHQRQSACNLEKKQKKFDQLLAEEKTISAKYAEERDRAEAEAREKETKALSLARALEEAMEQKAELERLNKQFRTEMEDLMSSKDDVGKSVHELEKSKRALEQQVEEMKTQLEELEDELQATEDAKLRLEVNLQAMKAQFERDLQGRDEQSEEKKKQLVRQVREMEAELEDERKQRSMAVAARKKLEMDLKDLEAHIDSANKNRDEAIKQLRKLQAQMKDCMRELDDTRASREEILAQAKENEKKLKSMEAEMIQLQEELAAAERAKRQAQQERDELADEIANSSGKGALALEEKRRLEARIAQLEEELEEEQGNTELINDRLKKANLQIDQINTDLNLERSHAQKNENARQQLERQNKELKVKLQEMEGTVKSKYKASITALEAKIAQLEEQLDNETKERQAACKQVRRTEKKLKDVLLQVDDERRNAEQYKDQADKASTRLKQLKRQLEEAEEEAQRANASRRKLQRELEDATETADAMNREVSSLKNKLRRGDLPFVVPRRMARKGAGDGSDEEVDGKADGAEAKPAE
UniProt P35222: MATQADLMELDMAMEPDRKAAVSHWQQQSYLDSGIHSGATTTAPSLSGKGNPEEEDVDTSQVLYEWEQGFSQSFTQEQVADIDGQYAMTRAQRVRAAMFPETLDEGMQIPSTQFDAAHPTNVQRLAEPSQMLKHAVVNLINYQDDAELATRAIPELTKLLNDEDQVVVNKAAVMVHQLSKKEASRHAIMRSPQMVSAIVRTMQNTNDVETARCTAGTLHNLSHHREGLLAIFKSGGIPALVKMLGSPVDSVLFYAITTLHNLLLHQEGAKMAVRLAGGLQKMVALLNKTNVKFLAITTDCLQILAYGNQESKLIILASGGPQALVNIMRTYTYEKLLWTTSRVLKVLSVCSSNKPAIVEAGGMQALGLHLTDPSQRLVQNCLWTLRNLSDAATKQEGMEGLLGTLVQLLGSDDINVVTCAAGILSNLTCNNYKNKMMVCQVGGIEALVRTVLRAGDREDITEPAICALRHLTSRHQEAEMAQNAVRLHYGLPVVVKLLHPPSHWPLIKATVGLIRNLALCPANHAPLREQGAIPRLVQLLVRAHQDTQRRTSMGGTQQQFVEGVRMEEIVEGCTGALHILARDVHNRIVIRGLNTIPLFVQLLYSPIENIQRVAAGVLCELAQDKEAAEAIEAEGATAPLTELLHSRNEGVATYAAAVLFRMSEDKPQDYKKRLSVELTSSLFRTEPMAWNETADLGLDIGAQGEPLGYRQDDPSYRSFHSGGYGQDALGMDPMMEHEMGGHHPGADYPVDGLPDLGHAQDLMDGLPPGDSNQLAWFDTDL
UniProt O15169: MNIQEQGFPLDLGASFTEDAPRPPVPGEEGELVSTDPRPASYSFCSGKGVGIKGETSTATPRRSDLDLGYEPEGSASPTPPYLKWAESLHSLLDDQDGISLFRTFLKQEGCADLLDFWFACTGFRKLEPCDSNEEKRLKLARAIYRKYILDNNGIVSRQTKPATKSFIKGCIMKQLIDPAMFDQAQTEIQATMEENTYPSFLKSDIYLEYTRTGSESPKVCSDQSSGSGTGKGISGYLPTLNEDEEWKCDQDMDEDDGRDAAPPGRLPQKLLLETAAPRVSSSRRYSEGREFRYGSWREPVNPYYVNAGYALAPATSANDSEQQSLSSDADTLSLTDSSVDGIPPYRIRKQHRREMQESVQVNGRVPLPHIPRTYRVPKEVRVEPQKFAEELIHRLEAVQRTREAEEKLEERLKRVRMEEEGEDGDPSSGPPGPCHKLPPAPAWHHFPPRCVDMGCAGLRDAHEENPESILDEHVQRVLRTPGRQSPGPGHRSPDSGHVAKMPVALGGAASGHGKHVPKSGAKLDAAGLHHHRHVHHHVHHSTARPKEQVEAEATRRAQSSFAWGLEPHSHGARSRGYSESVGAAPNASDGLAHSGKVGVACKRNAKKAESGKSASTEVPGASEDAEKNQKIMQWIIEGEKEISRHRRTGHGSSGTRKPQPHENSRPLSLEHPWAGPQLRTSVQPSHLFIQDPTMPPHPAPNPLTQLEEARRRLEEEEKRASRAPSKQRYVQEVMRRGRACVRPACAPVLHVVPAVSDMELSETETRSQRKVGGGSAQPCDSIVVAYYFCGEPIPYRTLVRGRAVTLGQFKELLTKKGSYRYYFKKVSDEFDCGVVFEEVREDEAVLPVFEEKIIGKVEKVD
UniProt P49841: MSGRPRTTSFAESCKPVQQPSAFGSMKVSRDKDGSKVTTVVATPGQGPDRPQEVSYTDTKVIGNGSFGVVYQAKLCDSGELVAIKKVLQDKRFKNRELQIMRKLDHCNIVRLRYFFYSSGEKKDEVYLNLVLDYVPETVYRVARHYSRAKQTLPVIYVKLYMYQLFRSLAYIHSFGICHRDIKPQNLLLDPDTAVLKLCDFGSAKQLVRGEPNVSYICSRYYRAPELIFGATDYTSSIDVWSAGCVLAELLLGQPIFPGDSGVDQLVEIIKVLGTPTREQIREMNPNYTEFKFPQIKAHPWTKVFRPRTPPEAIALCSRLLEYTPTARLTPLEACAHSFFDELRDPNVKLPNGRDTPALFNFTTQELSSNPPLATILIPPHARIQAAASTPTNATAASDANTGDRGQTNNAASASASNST

Target: Non-muscle myosin heavy chain IIA (MYH9) (human (endogenous in HCCLM3 and Huh7)) (UniProt P35579)
Assay: co-IP; MYH9-associated co-IP complex from HCCLM3 cells, endogenous proteins; Pierce Co-IP kit, 10 μg antibody or IgG to 5 mg protein overnight; western blotting

binding, binds:
β-catenin (from UniProt P35222 1-781)
AXIN1 (from UniProt O15169 1-862)
GSK3β (from UniProt P49841 1-420)
